Assay results reported in publication PMC9629720, “Lipids mediate supramolecular outer membrane protein assembly in bacteria” (Science Advances, 2022).
These are yes or no findings as the source states them, for the method shown.

Target: T1, OmpF, wild type, purified (E. coli), P02931
T1 chain: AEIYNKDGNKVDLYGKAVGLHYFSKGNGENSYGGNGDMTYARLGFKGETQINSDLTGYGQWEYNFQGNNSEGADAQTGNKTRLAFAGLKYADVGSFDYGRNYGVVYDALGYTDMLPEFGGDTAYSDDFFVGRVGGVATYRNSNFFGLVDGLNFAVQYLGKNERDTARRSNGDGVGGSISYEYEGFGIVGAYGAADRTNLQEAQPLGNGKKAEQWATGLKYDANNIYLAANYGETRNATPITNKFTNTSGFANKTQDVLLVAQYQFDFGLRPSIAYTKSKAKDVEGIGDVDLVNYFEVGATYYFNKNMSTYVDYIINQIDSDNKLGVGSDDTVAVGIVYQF
Assay: native gel or EMSA; blue native PAGE, 4-16% bis-tris gel, 4°C; purified proteins alone or mixed, 10 to 20 μM (BtuB added at 15 μM) in 10 mM tris-HCl pH 8.0, 5 mM EDTA, 1% β-OG; for OmpF alone: trimer with trimer; both purified
Settings: remark: other sources report otherwise

binding: no binding (tested: 20 μM)
B1: BtuB, wild type, purified (with LPS bound noncovalently), P06129 21-614 (protein)
chain: QDTSPDTLVVTANRFEQPRSTVLAPTTVVTRQDIDRWQSTSVNDVLRRLPGVDITQNGGSGQLSSIFIRGTNASHVLVLIDGVRLNLAGVSGSADLSQFPIALVQRVEYIRGPRSAVYGSDAIGGVVNIITTRDEPGTEISAGWGSNSYQNYDVSTQQQLGDKTRVTLLGDYAHTHGYDVVAYGNTGTQAQTDNDGFLSKTLYGALEHNFTDAWSGFVRGYGYDNRTNYDAYYSPGSPLLDTRKLYSQSWDAGLRYNGELIKSQLITSYSHSKDYNYDPHYGRYDSSATLDEMKQYTVQWANNVIVGHGSIGAGVDWQKQTTTPGTGYVEDGYDQRNTGIYLTGLQQVGDFTFEGAARSDDNSQFGRHGTWQTSAGWEFIEGYRFIASYGTSYKAPNLGQLYGFYGNPNLDPEKSKQWEGAFEGLTAGVNWRISGYRNDVSDLIDYDDHTLKYYNEGKARIKGVEATANFDTGPLTHTVSYDYVDARNAITDTPLLRRAKQQVKYQLDWQLYDFDWGITYQYLGTRYDKDYSSYPYQTVKMGGVSLWDLAVAYPVTSHLTVRGKIANLFDKDYETVYGYQTAGREYTLSGSYTF
